{
  "sequences": {"note": "Sequences of proteins named here, by UniProt entry; tags and fusion partners are left off. A change or cut given only in a name is not applied to a line headed by its entry.", "UniProt Q96SW2": "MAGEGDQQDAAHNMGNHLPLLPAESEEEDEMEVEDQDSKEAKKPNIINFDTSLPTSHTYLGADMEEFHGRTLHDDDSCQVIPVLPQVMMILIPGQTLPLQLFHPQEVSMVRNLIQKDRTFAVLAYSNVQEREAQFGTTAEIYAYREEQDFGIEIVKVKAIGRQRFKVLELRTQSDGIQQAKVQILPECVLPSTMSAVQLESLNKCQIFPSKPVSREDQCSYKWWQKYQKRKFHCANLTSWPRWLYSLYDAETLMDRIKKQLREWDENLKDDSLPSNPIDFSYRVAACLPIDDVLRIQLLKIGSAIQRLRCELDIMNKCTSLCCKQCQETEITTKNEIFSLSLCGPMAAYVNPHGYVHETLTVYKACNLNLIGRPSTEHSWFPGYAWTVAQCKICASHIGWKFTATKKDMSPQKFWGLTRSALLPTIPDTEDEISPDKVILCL", "UniProt P21554": "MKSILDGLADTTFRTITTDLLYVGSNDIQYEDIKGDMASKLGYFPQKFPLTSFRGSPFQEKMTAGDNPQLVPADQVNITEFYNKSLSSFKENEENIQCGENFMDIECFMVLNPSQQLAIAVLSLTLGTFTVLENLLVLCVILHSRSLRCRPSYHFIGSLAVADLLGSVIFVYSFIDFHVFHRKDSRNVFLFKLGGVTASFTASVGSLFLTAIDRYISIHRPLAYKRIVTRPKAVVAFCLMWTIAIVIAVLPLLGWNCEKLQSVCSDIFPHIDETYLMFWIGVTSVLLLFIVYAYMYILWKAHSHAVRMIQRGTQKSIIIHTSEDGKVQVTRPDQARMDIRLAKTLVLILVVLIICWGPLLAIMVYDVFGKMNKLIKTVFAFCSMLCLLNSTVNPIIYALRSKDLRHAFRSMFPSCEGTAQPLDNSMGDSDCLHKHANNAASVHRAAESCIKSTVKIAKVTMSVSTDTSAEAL"},
  "source": "paper PMC11018632",
  "molecular_target": "human 3xHA-CRBN (human) (UniProt Q96SW2)",
  "test": "co-IP; HEK-293T cells, transfected; lysates in GST buffer (50 mM Tris-HCl, 10% glycerol, 100 mM NaCl, 2 mM MgCl2, 1% NP-40, pH 7.4); IP with anti-HA agarose",
  "note": "Results are given in words; binding and its absence hold for the method and conditions named. In cells and extracts the contact can be indirect. Some binding calls cover weakened binding; strength is not graded here. Sequences can lack the tags named with a protein.",
  "data": [
    {"binder": "CIKSTVKIAKVT (domain or fragment, UniProt P21554 449-460)", "note": "[GFP-CB1R-CTD chimaera with the mid/distal CB1R-CTD stretch aa 449-460]", "values": [
      {"measurement": "binding", "value": "binds"}
    ]}
  ]
}
